Reference: PubChem BioAssay AID1439 (NMMLSC, 2008)
About 770 (0.35%) of roughly 220,000 compounds were called active. The inconclusive results got no clear call from the source; some entries with a clear call stand among them for comparison. No stated cut-off is given here; in the data, active means binding response below about 49% or above about 150%; inconclusive means no clear call, values can overlap the other calls; inactive means in between.

Amino acid sequences for entries named in this document (tags omitted).
UniProt P09471, whole entry, looked up: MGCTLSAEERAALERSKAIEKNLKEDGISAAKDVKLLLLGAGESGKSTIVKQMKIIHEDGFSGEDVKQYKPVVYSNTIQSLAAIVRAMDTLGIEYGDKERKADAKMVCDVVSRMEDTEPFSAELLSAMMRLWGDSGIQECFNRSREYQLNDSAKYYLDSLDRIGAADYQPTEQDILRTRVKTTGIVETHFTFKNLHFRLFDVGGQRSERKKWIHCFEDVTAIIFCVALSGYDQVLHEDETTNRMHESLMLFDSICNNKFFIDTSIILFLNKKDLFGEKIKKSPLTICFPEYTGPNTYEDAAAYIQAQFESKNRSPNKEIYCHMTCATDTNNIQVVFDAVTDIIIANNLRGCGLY

molecular target: Guanine nucleotide-binding protein G(o) subunit alpha (Homo sapiens) (UniProt P09471); assay: RGS7-Galphao binding modulators, primary screen, biochemical, multiplexed bead flow cytometry (AID 1439); settings: at 10 µM, actives lie on both sides;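 further: fluorescent Galphao held in activated GDP-AlF4 state binding bead-coupled RGS7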

SMILES	binding response (% of control)
CCOC(=O)c1cc(C)n(-c2ccc(Cl)cc2)c1C	inconclusive: 89%
CCC(=O)OC1(C)C(=O)C=C2C=C(c3ccsc3)OC=C2C1=O (centres undefined)	inconclusive: 78.9%
Cc1ccc(CC2C(=O)N(c3cc(Cl)ccn3)C(=O)C2C)cc1 (centres undefined)	inconclusive: 114%
CC(C)C12CN3CC(C(C)C)(CN(C1)C3c1ccc([N+](=O)[O-])o1)C2=O (centres undefined)	inconclusive: 90.6%
CCCOC(=O)c1ccc(NC(=O)c2cc(=O)[nH]c3ccccc23)cc1	inconclusive: 92.9%
CC(=O)N1CCCC1(C(=O)O)c1ccccc1 (centres undefined)	inconclusive: 107%
C=C(C)CNC(=S)N/N=C/c1ccco1	inconclusive: 87.5%
Cc1ccc2cn[nH]c2c1[N+](=O)[O-]	inactive: 124%
Cc1cc(C)c2c(CN3CCOCC3)cc(=O)oc2c1	inconclusive: 98%
Cn1c(CNC(=O)c2ccccc2)nnc1SCC(=O)Nc1nccs1	inactive: 91.9%
CS(=O)(=O)c1ccc(Cl)c(NC(=O)CCl)c1	inactive: 96.8%
Cc1ccc(Nc2nc(C(=O)N3CCC(C(=O)NC(C)C)CC3)cs2)cc1	inconclusive: 99%
CC(C)N(CC(=O)Nc1ccc(Cl)cc1C(F)(F)F)C(=O)CCl	inconclusive: 96%
COc1cc(NS(=O)(=O)c2ccc(NC(=S)NC(=O)/C=C/c3ccc(F)cc3)cc2)ncn1	inconclusive: 102%
OC1(c2ccc3c(c2)OCO3)CCN(Cc2ccc(F)cc2)CC1	inconclusive: 103%
CCN(CC)S(=O)(=O)c1ccc(Cl)c(NC(=O)COC(=O)c2cccn2C)c1	inconclusive: 102%
Cc1cccc(N=Cc2c(O)cc(C)oc2=O)c1	inconclusive: 95.5%
O=C(C1CCCCC1)N1CCc2[nH]c3ccc(F)cc3c2C1	inconclusive: 92.6%
O=c1/c(=C\c2ccc(O)cc2)sc2nc(-c3ccccc3)c(-c3ccccc3)n12	inconclusive: 85.9%
COc1ccc(/C=N/Nc2ncnc3c2[nH]c2ccc(C)cc23)c(OC)c1OC	inconclusive: 75%

Of the compounds above, these contain an aryl methoxy group:
SMILES	binding response (% of control)
COc1cc(NS(=O)(=O)c2ccc(NC(=S)NC(=O)/C=C/c3ccc(F)cc3)cc2)ncn1	inconclusive: 102%
COc1ccc(/C=N/Nc2ncnc3c2[nH]c2ccc(C)cc23)c(OC)c1OC	inconclusive: 75%

The list continues.

SMILES	binding response (% of control)
Cc1cc(-c2ccccc2)cc(-c2ccccc2)[n+]1C	inconclusive: 122%
COc1ccccc1NC(=O)c1ccc(-n2cncn2)nc1	inconclusive: 92.6%
CC1CCc2c(sc(NC(=O)CSc3ncn[nH]3)c2C#N)C1 (centres undefined)	inconclusive: 92.3%
CC(C)=CC(O)C/C(C)=C/COc1ccc2ccc(=O)oc2c1 (centres undefined)	inconclusive: 70.5%
O=C(NC1CCCCCC1)C(=S)NC1CCCCC1	inconclusive: 104%
Cc1nn(-c2cc(Cl)ccc2Cl)c(C)c1C(=O)O	inconclusive: 99.3%
CCOC(=O)c1cc(-c2csc(Nc3c(C)cc(C)cc3C)n2)on1	inconclusive: -53.5%
Cc1cccc(OCCCC(=O)NCC(=O)Nc2cccc(C)c2C)c1	inactive: 107%
O=C(O)/C=C/c1cn(-c2ccccc2)nc1-c1ccc(-c2ccc([N+](=O)[O-])cc2)o1	inconclusive: 102%
N/C(CSc1ccccn1)=N\OCc1c(Cl)cccc1Cl	inconclusive: 113%
COc1ccc(-c2cc(-c3ccco3)[nH]c(=O)c2C#N)cc1OC	inconclusive: 21.7%
CCn1c(SCC(=O)OC(C)C)nnc1-c1ccccc1	inconclusive: 74.7%
CCOc1ccc(CCNC(=O)c2cc3sc(Cl)cc3n2C)cc1OCC	inactive: 104%
Cc1cc(C)c2c(N)c(C(=O)N/N=C/c3cccnc3)sc2n1	inconclusive: 122%
COc1cc(OC)cc(C(=O)N[C@H](C(=O)Nc2ccc(NC(C)=O)cc2)C(C)C)c1	inconclusive: 81.9%
Nc1c2ccccc2nc2ccccc12	inconclusive: 177%
Cc1ccc(OCC(=O)NCc2ccco2)c([N+](=O)[O-])n1	inconclusive: 118%
N#CCc1ccc(Oc2ccc([N+](=O)[O-])cn2)cc1	inconclusive: -46.5%
Cc1cccc2cc(CNCc3ccccc3)c(Cl)nc12	inactive: 97.1%
CC(=O)C1=C(NC(=O)c2ccc(C(F)(F)F)cc2)C[C@@H]2[C@H]1C2(C)C	inconclusive: 100%

SMILES	binding response (% of control)
CCN(CC)S(=O)(=O)c1csc(C(=O)OCC(=O)c2ccccc2)c1	inactive: 87.5%
CCn1nc(C)c(CNCc2cn[nH]c2-c2cc3ccccc3o2)c1C	inconclusive: 118%
CCOC(=O)/C=C/C(=O)OCC(=O)Nc1c(Cl)cccc1Cl	inconclusive: 93.8%
O=C(Cc1c[nH]c2ccccc12)N1CCN(c2ccccc2)CC1	inconclusive: 125%
O=C(CSc1nnc(-c2ccc(C(F)(F)F)cn2)o1)Nc1ccccc1Cl	inconclusive: 113%
Cc1ccc(/C=N/NC(=O)Cc2cccn2C)cc1	inconclusive: 127%
COc1ccccc1NC(=O)Nc1nn(C)c2cccc(N(C)C)c12	inconclusive: 78.3%
COc1ccc(C2C(C#N)=C(N)Oc3cc(C)[nH]c(=O)c32)cc1OC (centres undefined)	inconclusive: 130%
CCN(CC)S(=O)(=O)c1ccc(N(C)Cc2cccnc2)nc1	inactive: 101%
Cc1ccc(-n2c(C(C)C)nc3oc4ccccc4c(=O)c3c2=O)cc1	inconclusive: 97.8%
Cc1ccc(C(=O)Nc2ccc(Br)cc2)cc1S(=O)(=O)Nc1ccccn1	inactive: 102%
Cc1cc(C)c(C(=O)Nc2ccccc2)c(CC(C)(C)C(=O)O)c1	inconclusive: 49.2%
CC(=O)Nc1ccc(-n2nnnc2SCC(=O)NCc2cccs2)cc1	inactive: 94.3%
Cc1cc(C)n(/C(=C/N(C)C)C(=O)c2ccccc2)n1	inconclusive: 90.9%
OC1(c2cccc(C(F)(F)F)c2)CCN(Cc2nnnn2Cc2ccccc2)CC1	inconclusive: 84.7%
CC(C)N(C(=O)COC(=O)c1ccc(Cl)nc1)C(C)C	inconclusive: 107%
Cc1ccc(CNC(=O)c2nnc(Cc3ccc(Cl)cc3)o2)cc1	inconclusive: 90.8%
COCCn1c(C)cc(C(=O)COC(=O)c2ccc([N+](=O)[O-])o2)c1C	inconclusive: 68.8%
COC(=O)[C@H](Cc1ccccc1)NC(=O)N1CCCCC1	inconclusive: 77.1%

Quoted from the listing.
For binding response (% of control), `CCOC(=O)/C=C/C(=O)OCC(=O)Nc1c(Cl)cccc1Cl` reads inconclusive: 93.8%
For binding response (% of control), `Cc1ccc(CNC(=O)c2nnc(Cc3ccc(Cl)cc3)o2)cc1` reads inconclusive: 90.8%
